Reference: article PMC7862700
This is a selection; strong and weak results do not stand in their true shares. At the low end of the ranking, values are background and their order means little.

Key:
ELK3 = molecular target: T1, ELK3 (UniProt P41970); assay: DAPPL (digital affinity profiling via proximity ligation, sequencing); conditions: 10 mM Tris-HCl pH 7.5, 50 mM NaCl, 1 mM DTT, 4% glycerol, room temperature, 30 min; GST-TFs on glutathione beads, 16-mer random dsDNA library, 0.1% …; high values mean tight binding; double strand, one strand shown; scale: fold enrichment (6-mer frequency, TF over GST control)
T1 sequence: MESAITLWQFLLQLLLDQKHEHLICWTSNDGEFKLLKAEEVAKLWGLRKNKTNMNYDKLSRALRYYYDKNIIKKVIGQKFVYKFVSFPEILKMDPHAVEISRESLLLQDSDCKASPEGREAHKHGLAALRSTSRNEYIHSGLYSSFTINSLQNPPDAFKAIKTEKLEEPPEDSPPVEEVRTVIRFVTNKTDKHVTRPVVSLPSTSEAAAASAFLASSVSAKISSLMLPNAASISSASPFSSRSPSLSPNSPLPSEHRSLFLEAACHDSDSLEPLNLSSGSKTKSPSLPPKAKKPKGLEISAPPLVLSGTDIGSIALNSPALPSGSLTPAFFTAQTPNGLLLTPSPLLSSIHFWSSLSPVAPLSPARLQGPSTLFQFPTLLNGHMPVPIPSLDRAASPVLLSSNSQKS

ETV3 = molecular target: T2, ETV3 (UniProt P41162-2); assay: as above; conditions: 10 mM Tris-HCl pH 7.5, 50 mM NaCl, 1 mM DTT, 4% glycerol, room temperature, 30 min; GST-TFs on glutathione beads, 16-mer random dsDNA library, 0.1% …; high values mean tight binding; double strand, one strand shown; scale: fold enrichment (6-mer frequency, TF over GST control)
T2 sequence: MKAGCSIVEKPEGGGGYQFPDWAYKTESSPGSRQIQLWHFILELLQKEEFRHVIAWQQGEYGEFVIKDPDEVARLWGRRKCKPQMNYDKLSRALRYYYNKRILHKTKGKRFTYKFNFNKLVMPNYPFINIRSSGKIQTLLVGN

Sequence | binding signal (ELK3) | binding signal (ETV3)
CCGACG | 1.2 | –
CAAATG | 1.09 | 1.13
ACCCGA | 0.99 | 1.05
CTTACT | 1.34 | –
TCCGTT | 1.54 | 1.58
GTTAAG | 1.05 | 1.18
GCACTA | 1.23 | –
TAATCG | 1.07 | 0.981
ATATAT | 1.4 | –
ACTATC | 1.07 | –
GGCTTG | 0.998 | 0.988
TACACA | 1.18 | –
CCCTTC | 1.44 | –
ATTCGA | 1.25 | 1.22
GCTGGT | 1.19 | –
CATTCA | 1.16 | –
TATGCC | 0.997 | –
GTTACA | 1.24 | 1.09
CTAGCG | 0.963 | 1.15
AAAGGG | 1.1 | 1.18
GCTTCT | 1.61 | 1.4
CCCTAG | 0.948 | –
CTATCG | 1.08 | –

Record cards (already shown):
GGCTTG as listed: binding signal (ELK3): 0.998; binding signal (ETV3): 0.988
CCCTAG as listed: binding signal (ELK3): 0.948
